{"source": "paper PMC7819943", "about": "“Rice protein-binding microarrays: a tool to detect cis-acting elements near promoter regions in rice”", "note": "This is one part of the list.", "data": [{"target": "T1, OsSMF1 (Oryza sativa, UniProt Q6ZLB0 1-436)", "T1 sequence": "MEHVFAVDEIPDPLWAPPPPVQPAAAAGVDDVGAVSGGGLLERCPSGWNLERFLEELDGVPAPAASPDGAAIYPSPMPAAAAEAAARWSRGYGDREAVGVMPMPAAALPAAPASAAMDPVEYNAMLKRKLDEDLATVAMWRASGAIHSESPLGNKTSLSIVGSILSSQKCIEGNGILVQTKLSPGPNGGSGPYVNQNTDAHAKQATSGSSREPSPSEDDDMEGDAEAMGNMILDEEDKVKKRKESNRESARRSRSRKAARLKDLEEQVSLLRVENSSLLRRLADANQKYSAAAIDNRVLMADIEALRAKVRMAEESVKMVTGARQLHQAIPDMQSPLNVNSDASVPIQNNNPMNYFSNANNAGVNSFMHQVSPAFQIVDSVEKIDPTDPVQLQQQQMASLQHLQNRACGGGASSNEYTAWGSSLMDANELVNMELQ", "assay": "protein-binding microarray (RPBM); PBS, 2% BSA, 51.3 ng/ul salmon testes DNA, 50 uM zinc acetate, 200 nM TF, 25 C, 1 h; high values mean tight binding", "conditions": "protein: recombinant; tags: N-terminal polyhistidine and DsRed monomer fusion (pET32a); chain copies: 2; label: CyDye5-dUTP incorporated in the synthesized complementary strand; 3' TTTTT single-stranded linker to array surface; dsDNA, one strand shown", "outline": "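In PBS with 2% BSA, salmon testes DNA and 50 µM zinc acetate, 200 nM protein was incubated on a custom Agilent array at 25 °C for 1 h and then washed off. The array had been made double-stranded by primer extension with Cy5-dUTP and blocked with 2% BSA. The proteins were transcription factors fused N-terminally to polyhistidine and DsRed, expressed in E. coli BL21-CodonPlus and purified on Ni–NTA. The binding signal is per-feature fluorescence intensity (arbitrary units) from an Axon 4000B scanner.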", "values": [{"sequence": "TGTGACCCATTCTAATACAATAAATCTGGACATGTGTACTCGGAGTCACCTAGTGCAG", "binding signal": "3630 fluorescence intensity (a.u.)"}, {"sequence": "CGAATAGTAACAGTAGTAATGACATGTATCCAATTCACCTCGGAGTCACCTAGTGCAG", "binding signal": "4450 fluorescence intensity (a.u.)"}, {"sequence": "TTGCTCGGGGCGATTGGGCCATGCGAGGTGCGGGATTTGACGGAGTCACCTAGTGCAG", "binding signal": "6040 fluorescence intensity (a.u.)"}, {"sequence": "AAGCCTCTCCGTGAACCAACACCCATAGACCATTGTGACTCGGAGTCACCTAGTGCAG", "binding signal": "22400 fluorescence intensity (a.u.)"}, {"sequence": "AAAATGTCACAAGTTTGGGCAGCCATGTCATGCACACATGCGGAGTCACCTAGTGCAG", "binding signal": "4590 fluorescence intensity (a.u.)"}, {"sequence": "CCTGCACCCCGATATCATGGTCCGTATCAGCCAGGGTTTACGGAGTCACCTAGTGCAG", "binding signal": "3330 fluorescence intensity (a.u.)"}, {"sequence": "GCGATCTGAAGTTCTGACTCATAGTCGACAACAGGGTAGCCGGAGTCACCTAGTGCAG", "binding signal": "3220 fluorescence intensity (a.u.)"}, {"sequence": "GAAGAATTTGGATCCAACGTCCCAGATCAGCGCGCGTCCCCGGAGTCACCTAGTGCAG", "binding signal": "4230 fluorescence intensity (a.u.)"}, {"sequence": "CAAGACACCAGCAAACGTAGGAGTGCTACGTGTGTACTCCCGGAGTCACCTAGTGCAG", "binding signal": "5040 fluorescence intensity (a.u.)"}, {"sequence": "ATCTCACGGTAATCATACGGTTTTCACGATAATTATGTGGCGGAGTCACCTAGTGCAG", "binding signal": "3170 fluorescence intensity (a.u.)"}, {"sequence": "CGATGCCCATGGGTATGACGCGCCAACCTAACAAGTGCTCCGGAGTCACCTAGTGCAG", "binding signal": "3580 fluorescence intensity (a.u.)"}, {"sequence": "ATGTGACTGAAAAGTTGTGTGTGTATGACAGGTTGATGTGCGGAGTCACCTAGTGCAG", "binding signal": "3800 fluorescence intensity (a.u.)"}, {"sequence": "CTGTTGAACTTCTTTTCAATTGACAACGTAAGTGCTGGCGCGGAGTCACCTAGTGCAG", "binding signal": "4420 fluorescence intensity (a.u.)"}, {"sequence": "ATGCGTCATGCGTATAGGGATAAGTAGTCTAAGAGGAATTCGGAGTCACCTAGTGCAG", "binding signal": "22600 fluorescence intensity (a.u.)"}, {"sequence": "AAACCTCCCTGTACACCACCTGTTCGATCAATTGCGCCGCCGGAGTCACCTAGTGCAG", "binding signal": "3530 fluorescence intensity (a.u.)"}, {"sequence": "GTTATCTATTAAGAAAAGGATATGCAGTATTGTATAGTTGCGGAGTCACCTAGTGCAG", "binding signal": "3560 fluorescence intensity (a.u.)"}, {"sequence": "TGGACTGTGATGACGACGACGATGATGCGGGAGGTGCCTACGGAGTCACCTAGTGCAG", "binding signal": "3680 fluorescence intensity (a.u.)"}, {"sequence": "GAAGGGGAAGGGAGGGGATGAGATAGTTGGGCTCGTACCTCGGAGTCACCTAGTGCAG", "binding signal": "3510 fluorescence intensity (a.u.)"}, {"sequence": "GTAGATTGACTGCGGACAACAAAGCTGAGTCAGCGTGGGACGGAGTCACCTAGTGCAG", "binding signal": "13900 fluorescence intensity (a.u.)"}, {"sequence": "TCTTCTGGGACAAACTATCACTGGTCCAACCTTAGTTAAACGGAGTCACCTAGTGCAG", "binding signal": "24200 fluorescence intensity (a.u.)"}, {"sequence": "AACCCCACGTGGCAGCCTCTGTGTCTATGGGCCCCACCTCCGGAGTCACCTAGTGCAG", "binding signal": "18200 fluorescence intensity (a.u.)"}, {"sequence": "GGCGCGAATCTGCTGGGCCCCGCCACGGCGGCAGAGCAGACGGAGTCACCTAGTGCAG", "binding signal": "3410 fluorescence intensity (a.u.)"}, {"sequence": "ATTTCTAATGCCACGTTAACGCCACGTGGAAAGAAGACCGCGGAGTCACCTAGTGCAG", "binding signal": "17900 fluorescence intensity (a.u.)"}, {"sequence": "CACCCGAGTCAATGATATGTGGATCAGGATGACATATCTCCGGAGTCACCTAGTGCAG", "binding signal": "3220 fluorescence intensity (a.u.)"}, {"sequence": "CTACTAATCACACCTCATCTGCGAAATATGAGATCCTACGCGGAGTCACCTAGTGCAG", "binding signal": "4770 fluorescence intensity (a.u.)"}, {"sequence": "GCGCTGCAATGGTACATGTGCATCGTCATCTTTGTTGTCACGGAGTCACCTAGTGCAG", "binding signal": "4610 fluorescence intensity (a.u.)"}, {"sequence": "GCTGTGACTATAGTTATACAATCTTTTGCATCACCAATTTCGGAGTCACCTAGTGCAG", "binding signal": "15500 fluorescence intensity (a.u.)"}, {"sequence": "GTGATACATTGGTAAATTACCCCGTTTAAAATGAAAACATCGGAGTCACCTAGTGCAG", "binding signal": "3190 fluorescence intensity (a.u.)"}, {"sequence": "GACCTGCACCGTGACACGTATACCATGTCATCCAATGCACCGGAGTCACCTAGTGCAG", "binding signal": "4100 fluorescence intensity (a.u.)"}, {"sequence": "GGTTTGGTATCTCCTTTGGTTGCCAACGCACGCAGGGAGACGGAGTCACCTAGTGCAG", "binding signal": "4100 fluorescence intensity (a.u.)"}, {"sequence": "GGCCCAACATGGATGGGCCTAACGTGGAATCCAACGGTCCCGGAGTCACCTAGTGCAG", "binding signal": "4440 fluorescence intensity (a.u.)"}, {"sequence": "TAGTTGACATACATGCTGCATGCAACAAATATGTAGGGTGCGGAGTCACCTAGTGCAG", "binding signal": "14500 fluorescence intensity (a.u.)"}, {"sequence": "TTTCAAATAAGACAAACAGTCAAACGTTGAACGTGAATAGCGGAGTCACCTAGTGCAG", "binding signal": "4040 fluorescence intensity (a.u.)"}, {"sequence": "CGACACACGTGTTACGTGTAGTCGCTGTAATAGGCCGTGTCGGAGTCACCTAGTGCAG", "binding signal": "7910 fluorescence intensity (a.u.)"}, {"sequence": "AGTAGAGTACGACGACGACGCGTGGATGATGACTCGCGAACGGAGTCACCTAGTGCAG", "binding signal": "4410 fluorescence intensity (a.u.)"}, {"sequence": "TTTCTACTGATATGTGTCATCCAGTAGTTTGAGTATTTCTCGGAGTCACCTAGTGCAG", "binding signal": "4050 fluorescence intensity (a.u.)"}, {"sequence": "ATTTATATAAGTACATGAATCTAGTCACTCTCTGGTTTGTCGGAGTCACCTAGTGCAG", "binding signal": "4290 fluorescence intensity (a.u.)"}, {"sequence": "TGGTAAGAATTTGAGTCTATAACGCATAGGCCCAATGACTCGGAGTCACCTAGTGCAG", "binding signal": "3540 fluorescence intensity (a.u.)"}, {"sequence": "CAGAAGTGTAAAGTTCAGAATTTCCATCAATCCAGTTCAACGGAGTCACCTAGTGCAG", "binding signal": "8110 fluorescence intensity (a.u.)"}, {"sequence": "GTGGACGCGCGTCAGCCTGGCCTACTACACGTCGACGCGGCGGAGTCACCTAGTGCAG", "binding signal": "5940 fluorescence intensity (a.u.)"}, {"sequence": "AGGCGACGCGCGACGGGAGGAGTCAGATCGCTTCTCCTCCCGGAGTCACCTAGTGCAG", "binding signal": "3260 fluorescence intensity (a.u.)"}, {"sequence": "ACGTTCCACTCGCGCGCCTCCACGTCAGCACCCACTGTGGCGGAGTCACCTAGTGCAG", "binding signal": "42300 fluorescence intensity (a.u.)"}]}]}
